According to patent publication US4542219A, “Certain heterocyclic ammonio phosphate derivatives” (Takeda Chemical Industries, Ltd., priority 1981, dated 1985):
At least one structure is not confirmed: it was looked up by name or label, or the drawing left a doubt.

Key:
[1] = test system: peritoneal cells; assay: Activation of macrophage: peritoneal cell numbers; assay type: in vivo, ICR mice; details: 300 μg/mouse intraperitoneally, four days later
[2] = test system: Macrophage; assay: Activation of macrophage: activated oxygen generated by PMA-stimulation; assay type: in vivo, ICR mice; details: 300 μg/mouse intraperitoneally

CCCCCCCCCCCCCCCCCCOCCOP(=O)([O-])OCC[n+]1ccccc1 [Production Example 10, 2-Octadecyloxyethyl 2-pyridinioethyl phosphate]
number of adsorbed peritoneal cells relative to control group [1]: about five | number of total peritoneal cells relative to control group [1]: about five | amount of activated oxygen relative to control group [2]: about three
